Source: the supplement of paper PMC11006884
The targets with a hit were mostly taken out for another list; the other results follow. The data scatter; read single values as rough. This is a selection; strong and weak results do not stand in their true shares.

Compound: COC(=O)/C=C/c1ccccc1 [methyl cinnamate]
Experiment: log2 ratio of iodoacetamide-alkyne labeling of the cysteine site, DMSO over compound (competition); higher = stronger covalent engagement of the cysteine by the compound, active = 1 or more
Settings: 500 µM; treatment time 1 h; system: HEK293T cell lysate
In short: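 HEK293T lysate (2 mg/mL) was treated with DMSO or electrophile (500 µM, 1 h, ambient temperature), then iodoacetamide alkyne (1 h), clicked to sCIP-TMT reagents, pooled, trypsin-digested overnight at 37 °C, streptavidin-enriched and acid-eluted. Peptides were run on Orbitrap Eclipse LC-MS/MS with FAIMS and quantified in FragPipe. The log2 competition ratio per cysteine is mean control-channel over mean compound-channel reporter intensity. Duplicate channels and three replicates were used, and cysteines quantified in only one replicate were excluded.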

log2 ratio of iodoacetamide-alkyne labeling, inactive:
HMGCS1 C12 (UniProt Q01581) 0.0575
REEP5 C18 (UniProt Q00765) 0.2
UniProt P68363_C129 -0.0648
RPS27A C149 (UniProt P62979) 0.237
UniProt P62873_C317 0.035
PPIA C62 (UniProt P62937) 0.112
HNRNPU C497 (UniProt Q00839) 0.0148
UniProt P78527_C4061 0.141
MRPS11 C112 (UniProt P82912) 0.208
UniProt P62995_C118 -0.0826
AMPD2 C310 (UniProt Q01433) 0.223
UniProt P78527_C3281 0.2
UniProt P78527_C223 0.000955
UniProt P62280_C60 0.387
CAP1 C93 (UniProt Q01518) 0.109

Random excerpt: 2 entries already listed, in no set order.
log2 ratio of iodoacetamide-alkyne labeling, inactive:
HNRNPU C497 (UniProt Q00839) 0.0148
UniProt P62995_C118 -0.0826
